The other results are listed elsewhere or left out. The main result of the screen is listed elsewhere. These columns were measured beside it and carry no call. Compounds called inactive in the main read-out are mostly missing here. Potencies come from curve fits of mixed quality, noted in brackets.
Assay: qHTS Assay for Lipid Storage Modulators in Drosophila S3 Cells;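 as to cell number change: cells counted by Cell Tracker Red CMTPX staining in the red channel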
Settings: BODIPY lipid droplet fluorescence, 18-24 h; for cell number change: measured here: cell count max response, cells fed with added oleic acid
Summary of the method: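 Laser-scanning cytometry quantifies lipid droplet accumulation (500–530 nm total intensity; droplet/cell object ratio) in oleic acid-fed (400 uM added) Drosophila S3 cells treated with a concentration series. 20 uM Triacsin C defined 100% inhibition.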

[1] = measured here: lipid fluorescence (Fed channel) AC50, cells fed with added oleic acid
[2] = measured here: cell number channel AC50, cells fed with added oleic acid

Work on `Cc1cccc(C)c1NC(=S)NC(=O)c1ccccc1F` yielded a cell number change of 5.49%.
With `COc1cc(O)c(C(CCN2CCCC2)c2ccc3c(c2)OCO3)c(OC)c1` (stereo not given) the cell number change was 15.3% and the AC50 [1] was 29.1 µM [rising, single point].
With `O=C(CN1CCCCC1)NC(=O)NC1CCCC1` the cell number change was -34%, the AC50 [2] was 7.31 µM [falling, partial curve, poor fit] and the AC50 [1] was 16.4 µM [falling, partial curve].
With `Cc1cccc(N2CCN(S(=O)(=O)c3cnc[nH]3)CC2)c1C` the cell number change was -24.2%, the AC50 [2] was 4.11 µM [falling, partial curve] and the AC50 [1] was 0.103 µM [falling, full curve, poor fit].
With `Cc1ccc2c(c1)N(C)/C(=C/c1cccc[n+]1CCO)S2` the cell number change was -7.8% and the AC50 [2] was 2.91 µM [rising, single point].
For `COc1cc(/C=N/n2c(C)n[nH]c2=S)ccc1OCc1ccccc1`, the cell number change was -50.6%, the AC50 [2] was 0.058 µM [falling, full curve] and the AC50 [1] was 6.51 µM [rising, partial curve].
For `Cc1ccc(-n2cc(-c3ccccc3)c3c(NN4CCOCC4)ncnc32)cc1`, the AC50 [1] was 6.51 µM [rising, single point].
With `CC1=C(C)C(=O)C(N2CCOCC2)=CC1=O` the cell number change was -21.8% and the AC50 [1] was 14.6 µM [falling, single point].
For `CCC(C)NC(=O)NC(=O)CSc1nnc(-c2ccccc2F)n1C1CC1` (stereo not given), the cell number change was 8.33% and the AC50 [1] was 0.0058 µM [rising, full curve, poor fit].
For `Cc1ccc(-c2csc3ncnc(NCCN4CCOCC4)c23)cc1`, the cell number change was -17.9% and the AC50 [1] was 0.231 µM [rising, single point].
Molecule `CCOC(=O)C1C(c2ccc(OC)cc2)N(C)OC1(O)C(F)(F)F` (stereo not given) has a cell number change of -36.6%.
With `CCOc1ccc(S(=O)(=O)Nc2ccc(C(=O)NCC3CCCO3)cc2)cc1` (stereo not given) the cell number change was 10.8% and the AC50 [1] was 13 µM [rising, partial curve, poor fit].
With `COc1ccc(Cl)cc1NS(=O)(=O)c1ccc(S(=O)(=O)N2CCCC2)cc1` the AC50 [2] was 1.84 µM [falling, partial curve, poor fit] and the AC50 [1] was 6.51 µM [falling, single point].
For `CN(C)c1ccc(C2CC(c3ccccc3)=Nc3nc(-c4ccccc4)cn32)cc1` (stereo not given), the cell number change was 7.94% and the AC50 [1] was 0.231 µM [rising, full curve, poor fit].
With `C#CCOCCOCCOCCNc1nc(N2CCN(C(=O)Cn3cc(CCCN=C(N)N)nn3)CC2)nc(N2CCN(C(=O)[C@H]([C@@H](C)O)n3cc(CCCCN)nn3)CC2)n1` the cell number change was -5.68% and the AC50 [1] was 29.1 µM [rising, partial curve].
`COc1ccc(NC(=O)/C(=C\c2ccccc2)NC(=O)c2ccco2)cc1` gave a cell number change of 8.57%.
With `CCOc1ccc(C(C)=O)cc1COC(=O)c1cccnc1SC` the cell number change was 39.2%.
Work on `Cc1ccc(C)c(NC(=O)C(=O)NCc2ccccn2)c1` yielded a cell number change of 3.1%.
With `CCN(Cc1nc(-c2ccc(OC)cc2)no1)C(=O)c1ccoc1C` the cell number change was 13.9%.
`COc1ccccc1N1CCN(C(=O)c2ccccc2Oc2ccccc2)CC1` gave a cell number change of -6.08%.
With `CCOc1ccc(N(CC(=O)Nc2cc(C)ccc2C)S(=O)(=O)c2c(C)[nH]c(=O)[nH]c2=O)cc1` the cell number change was -26.8% and the AC50 [1] was 29.1 µM [falling, single point].
With `O=C(O)CN1C(=O)C2C3CC(C2C1=O)C1C(c2ccc(F)cc2)c2sc(=O)[nH]c2SC31` (stereo not given) the cell number change was -50.1%, the AC50 [2] was 16.4 µM [falling, single point] and the AC50 [1] was 18.4 µM [falling, single point].
In the case of `CCCCC(=O)NN(C)c1nc(-c2ccccc2)nnc1C(F)(F)F`, the cell number change is reported as 0.931% and the AC50 [1] is reported as 29.1 µM [rising, single point].
With `COc1ccc(-c2cc(C(F)(F)F)n3nc(C(=O)NCCCn4ccnc4)cc3n2)cc1` the cell number change was 231%, the AC50 [2] was 29.1 µM [rising, single point] and the AC50 [1] was 16.4 µM [rising, partial curve].
In the case of `OCC1(Cc2ccc(Cl)cc2)CCN(CCCc2ccccc2)CC1`, the cell number change is reported as 11.6% and the AC50 [1] is reported as 0.00461 µM [falling, full curve, poor fit].
For `O=C(NCc1ccco1)C1CCCN1C(=O)Nc1ccc(Br)cc1` (stereo not given), the AC50 [1] was 29.1 µM [falling, single point].
For `Nc1ccc(C(=O)N/N=C/c2cn(Cc3ccc(F)cc3)c3ccccc23)cc1`, the cell number change was -15.8%.
For `COc1c(C)cccc1C(=O)Nc1ccc(N2CCOCC2)c(Cl)c1`, the AC50 [2] was 6.51 µM [rising, single point] and the AC50 [1] was 6.51 µM [rising, single point].
In the case of `CCC(=O)Nc1ccc(-c2ccc(N3CCCCC3)nn2)cc1`, the cell number change is reported as -18.9% and the AC50 [1] is reported as 29.1 µM [falling, single point].
For `CC(Sc1nc(-c2ccccc2)cc(C(F)(F)F)n1)C(=O)Nc1sc2c(c1C#N)CCC2` (stereo not given), the cell number change was -22.5%.
For `O=C(CSc1nnc2scc(-c3ccc(F)cc3)n12)NCc1ccco1`, the cell number change was 13.6% and the AC50 [1] was 29.1 µM [rising, single point].
In the case of `Cc1ccc(OC(=O)C(C)c2cccc(C(=O)c3ccccc3)c2)cc1` (stereo not given), the cell number change is reported as 7.25% and the AC50 [1] is reported as 29.1 µM [rising, single point].
In the case of `CC1C(=O)C(C)C(c2cc(Cl)ccc2O)NC1c1cc(Cl)ccc1O` (stereo not given), the cell number change is reported as -73.8% and the AC50 [2] is reported as 20.6 µM [falling, single point].
In the case of `CCN(CC(=O)NCc1ccc(Cl)cc1)C(=O)CCc1ccccc1O`, the cell number change is reported as 32.1% and the AC50 [1] is reported as 29.1 µM [rising, single point].
In the case of `COc1ccc(-n2nc(C(=O)NCC(=O)NCc3ccco3)c3ccccc3c2=O)c(OC)c1`, the cell number change is reported as 8.52%.
In the case of `C[C@H](/C=C/[C@@]1(O)[C@H](C)C[C@H](O)CC1(C)C)O[C@@H]1O[C@H](CO)[C@@H](O)[C@H](O)[C@H]1O`, the AC50 [2] is reported as 0.731 µM [rising, single point].
For `O=C(NCCCc1ccc(F)cc1)C1CCC(=O)N(CC2CCCCC2)C1` (stereo not given), the cell number change was 14.7% and the AC50 [1] was 25.9 µM [falling, single point].
For `Cc1cccc(NC(=O)CSc2ccc(-c3cccnc3)nn2)c1`, the cell number change was 5.78% and the AC50 [1] was 6.51 µM [rising, full curve].
In the case of `Cc1ccc(NS(=O)(=O)c2ccc(C(=O)N3CCN(c4ccccn4)CC3)cc2)cc1`, the cell number change is reported as -2.61% and the AC50 [1] is reported as 2.91 µM [rising, partial curve].

From PubChem BioAssay AID2685 (National Center for Advancing Translational Sciences (NCATS), 2010)
